According to publication PMC12196458, “An Alternative Mechanism of Glutamate Dehydrogenase Inhibition by EGCG: Promotion of Protein Degradation” (Pharmaceuticals, 2025):
Results are given in words; binding and its absence hold for the method and conditions named.

Sequences of proteins named here, by UniProt entry; tags and fusion partners are left off. Residues count along the entry.
UniProt P00366, residues 58-558: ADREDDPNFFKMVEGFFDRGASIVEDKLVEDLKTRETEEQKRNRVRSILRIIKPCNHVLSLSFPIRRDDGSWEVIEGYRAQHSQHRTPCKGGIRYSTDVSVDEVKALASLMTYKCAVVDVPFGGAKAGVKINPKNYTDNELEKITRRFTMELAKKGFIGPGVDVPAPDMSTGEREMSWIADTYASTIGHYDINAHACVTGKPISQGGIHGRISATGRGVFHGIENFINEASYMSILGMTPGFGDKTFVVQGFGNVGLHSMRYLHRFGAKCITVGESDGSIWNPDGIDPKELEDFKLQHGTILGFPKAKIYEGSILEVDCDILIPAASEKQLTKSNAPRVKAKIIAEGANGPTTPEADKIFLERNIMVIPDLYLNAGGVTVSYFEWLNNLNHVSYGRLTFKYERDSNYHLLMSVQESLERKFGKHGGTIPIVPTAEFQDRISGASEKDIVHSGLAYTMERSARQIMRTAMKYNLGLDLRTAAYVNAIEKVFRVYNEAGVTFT

Target: bovine glutamate dehydrogenase (bovine) (UniProt P00366)
Experiment: condition: only with 5 mM EGCG or trypsin (20–500 μg/mL); native gel or EMSA; native-PAGE of 2.5 mg/mL bovine GDH with 5 mM EGCG or with trypsin (20–500 μg/mL); both purified

Substance: bovine glutamate dehydrogenase (from UniProt P00366 58-558) (enzyme)
- binding: no binding
